Measurements reported in publication PMC8213733, “Subtype-specific collaborative transcription factor networks are promoted by OCT4 in the progression of prostate cancer” (Nature Communications, 2021).
Results are given in words; binding and its absence hold for the method and conditions named. For part of these data: In cells and extracts the contact can be indirect. Some binding calls cover weakened binding; strength is not graded here. For part of these data: Where a sequence is shown, tags or fusion partners need not be part of it. One block for each molecule: values may come before it.

By UniProt entry, the sequences of proteins in these tests, tags left out.
UniProt P10275: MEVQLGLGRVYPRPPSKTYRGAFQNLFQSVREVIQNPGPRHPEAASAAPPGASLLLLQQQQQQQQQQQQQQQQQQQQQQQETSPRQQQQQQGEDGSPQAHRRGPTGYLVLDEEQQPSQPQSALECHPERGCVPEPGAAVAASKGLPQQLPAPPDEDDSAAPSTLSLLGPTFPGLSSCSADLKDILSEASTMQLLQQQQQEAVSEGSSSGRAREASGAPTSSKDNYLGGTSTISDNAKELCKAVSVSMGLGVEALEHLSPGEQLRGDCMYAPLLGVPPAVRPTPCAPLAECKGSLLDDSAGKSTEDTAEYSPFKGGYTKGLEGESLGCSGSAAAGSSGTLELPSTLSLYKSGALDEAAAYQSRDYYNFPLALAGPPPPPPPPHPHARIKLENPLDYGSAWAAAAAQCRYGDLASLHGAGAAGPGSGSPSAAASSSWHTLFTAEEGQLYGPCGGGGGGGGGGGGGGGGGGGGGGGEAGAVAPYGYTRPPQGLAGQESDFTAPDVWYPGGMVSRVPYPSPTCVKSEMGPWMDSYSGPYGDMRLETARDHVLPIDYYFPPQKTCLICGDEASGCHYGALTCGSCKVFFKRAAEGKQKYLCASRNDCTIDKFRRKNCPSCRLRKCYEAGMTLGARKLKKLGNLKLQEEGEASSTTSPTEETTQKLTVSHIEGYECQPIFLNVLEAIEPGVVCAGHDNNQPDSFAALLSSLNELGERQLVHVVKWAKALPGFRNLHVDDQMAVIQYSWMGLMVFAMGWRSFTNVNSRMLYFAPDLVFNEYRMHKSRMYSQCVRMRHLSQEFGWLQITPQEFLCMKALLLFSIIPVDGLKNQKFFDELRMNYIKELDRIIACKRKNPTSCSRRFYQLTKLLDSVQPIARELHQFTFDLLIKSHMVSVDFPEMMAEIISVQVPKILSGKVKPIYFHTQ
UniProt Q01860: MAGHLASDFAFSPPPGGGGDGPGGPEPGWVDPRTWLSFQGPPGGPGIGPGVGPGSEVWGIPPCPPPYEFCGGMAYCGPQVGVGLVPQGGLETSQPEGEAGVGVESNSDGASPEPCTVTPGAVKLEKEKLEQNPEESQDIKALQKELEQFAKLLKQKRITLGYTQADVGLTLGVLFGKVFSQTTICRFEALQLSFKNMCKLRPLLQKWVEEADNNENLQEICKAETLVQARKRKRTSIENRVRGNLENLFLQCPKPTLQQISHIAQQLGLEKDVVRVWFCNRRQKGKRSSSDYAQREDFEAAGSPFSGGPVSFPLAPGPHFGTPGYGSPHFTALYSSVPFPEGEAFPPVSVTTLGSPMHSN

What was measured:
[1] = biological target: Flag-AR (human (cDNA of PC cells, said of the Venus constructs)) (UniProt P10275); assay: co-IP; full-length OCT4 and deletion mutants tested for association with AR (Supplementary Fig. 3a); set-up not shown
[2] = biological target: T1, Flag-FOXA1 (human (cDNA of PC cells, said of the Venus constructs)) (UniProt P55317); assay: co-IP; with and without added AR (Supplementary Fig. 1e); set-up not shown
T1 sequence: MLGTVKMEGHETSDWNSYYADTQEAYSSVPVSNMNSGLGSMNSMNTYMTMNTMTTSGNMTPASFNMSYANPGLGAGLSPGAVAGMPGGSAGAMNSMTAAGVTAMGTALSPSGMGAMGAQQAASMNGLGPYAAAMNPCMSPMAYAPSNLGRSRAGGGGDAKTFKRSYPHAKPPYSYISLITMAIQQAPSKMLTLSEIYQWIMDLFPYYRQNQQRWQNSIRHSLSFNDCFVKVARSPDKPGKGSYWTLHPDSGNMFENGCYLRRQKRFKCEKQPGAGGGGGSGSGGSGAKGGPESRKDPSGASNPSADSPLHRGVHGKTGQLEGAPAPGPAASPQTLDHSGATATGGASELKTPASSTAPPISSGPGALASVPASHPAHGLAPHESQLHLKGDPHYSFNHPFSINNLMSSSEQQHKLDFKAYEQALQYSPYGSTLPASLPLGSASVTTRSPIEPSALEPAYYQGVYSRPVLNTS

[3] = biological target: T1, Flag-FOXA1 (human (cDNA of PC cells, said of the Venus constructs)); assay: co-IP; in vitro binding assay: purified proteins in 20 mM Tris-HCl pH 7.5, 150 mM NaCl, 0.1% Triton X-100, 1 mM DTT, 4 °C, 5 h; FOXA1 immunoprecipitated, bound proteins by western blot; with or without ribavirin-phosphate; both purified
[4] = biological target: OCT4 (human (endogenous in LNCaP, 22Rv1, DU145-CR, PC3-CR)) (UniProt Q01860); assay: co-IP; xenograft tumours (22Rv1; DU145-CR) homogenised in RIPA buffer; mice treated with vehicle or ribavirin
[5] = biological target: OCT4 (human (endogenous in LNCaP, 22Rv1, DU145-CR, PC3-CR)) (UniProt Q01860); assay: co-IP; immunoprecipitation and western blot (Supplementary Fig. 6d); cells not named for this experiment (section on DU145 cells)
[6] = biological target: OCT4 (human (endogenous in LNCaP, 22Rv1, DU145-CR, PC3-CR)) (UniProt Q01860); assay: co-IP; endogenous proteins; whole cell extracts in 50 mM Tris-HCl pH 8.0, 150 mM NaCl, 1% NP-40; indicated antibodies overnight at 4 °C, protein G agarose; LNCaP and 22Rv1 cells (with DHT), DU145-CR and PC3-CR cells

binding [1]: binds
binding [2]: binds
binding [3]: binds
Molecule: HA-OCT4 (from UniProt Q01860 1-360)

binding [4]: binds
binding [5]: binds
binding [6]: binds
B1: nuclear respiratory factor 1 (protein, UniProt Q16656 1-503)
chain: MEEHGVTQTEHMATIEAHAVAQQVQQVHVATYTEHSMLSADEDSPSSPEDTSYDDSDILNSTAADEVTAHLAAAGPVGMAAAAAVATGKKRKRPHVFESNPSIRKRQQTRLLRKLRATLDEYTTRVGQQAIVLCISPSKPNPVFKVFGAAPLENVVRKYKSMILEDLESALAEHAPAPQEVNSELPPLTIDGIPVSVDKMTQAQLRAFIPEMLKYSTGRGKPGWGKESCKPIWWPEDIPWANVRSDVRTEEQKQRVSWTQALRTIVKNCYKQHGREDLLYAFEDQQTQTQATATHSIAHLVPSQTVVQTFSNPDGTVSLIQVGTGATVATLADASELPTTVTVAQVNYSAVADGEVEQNWATLQGGEMTIQTTQASEATQAVASLAEAAVAASQEMQQGATVTMALNSEAAAHAVATLAEATLQGGGQIVLSGETAAAVGALTGVQDANGLVQIPVSMYQTVVTSLAQGNGPVQVAMAPVTTRISDSAVTMDGQAVEVVTLEQ
